# Measurements: the supplement of paper PMC9135407
# Where “and” joins values, the source holds several entries; their conditions need not be identical. Equal values may be shown once. ± gives the standard deviation of the averaged measurements. This is one part of the list. Plates or batches differ in their baseline, so values are only roughly comparable.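 Assay uses culture-activated primary human stellate myofibroblasts; lipid droplet recovery indicates inactivation. Measured: proportion of Hoechst-counted cells over a plate-specific Bodipy cutoff, duplicate wells, DMSO and nortriptyline as per-plate negative and positive controls. A hit scores, control-normalized, above the plate's top-tenth-percentile nortriptyline wells or ranks among its three best wells. Final well concentrations not reported.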
# System: primary human hepatic stellate cells (donor 1)
# Assay: percent Bodipy-positive cells; higher = more lipid droplet accumulation
# Conditions: 48 h
# Protocol: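 Primary lipid accumulation screen in primary human hepatic stellate cell myofibroblasts (donor 1, passage 8) in 384-well plates. 100 nL of library compound was pin-transferred into 30 µL medium in duplicate, and cells were treated for 48 h. The 'Scaled' score combines distance from plate baseline, toxicity and reproducibility penalties, and is normalised to nortriptyline (positive) and DMSO (negative) controls on each plate. A hit is defined as scaled >0.85 or among the top 3 wells per plate.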
# [1] = library stock concentration: 3.33 mM
# [2] = library stock concentration: 10 mM
# [3] = library stock concentration: 1 mM
# [4] = library stock concentration: 80 uM
# [5] = library stock concentration: 400 uM
# [6] = library stock concentration: 2 mM
smiles,measurement,setting,value
O=S(=O)(O)Oc1ccc(C(c2ccc(OS(=O)(=O)O)cc2)c2ccccn2)cc1 [Sodium Picosulfate],percent Bodipy-positive cells,[1],11.4 ± 6.7%
same,percent Bodipy-positive cells,[2],24.7 ± 13%
Nc1nc(OCC2CCCCC2)c2[nH]cnc2n1,percent Bodipy-positive cells,[2],33.8 ± 6.2%
CC=CC1=C(C(=O)O)N2C(=O)[C@@H](NC(=O)[C@H](N)c3ccc(O)cc3)[C@H]2SC1 [Cefprozil],percent Bodipy-positive cells,library stock concentration: 5.1 mM,11 ± 7.8%
same,percent Bodipy-positive cells,[2],19.3 ± 3.8%
CCCCC/C=C\C/C=C\C/C=C\CCCCCCC(=O)O [Dihomo-gamma-linolenic acid],percent Bodipy-positive cells,[3],8.78 ± 5.7%
CCCCC/C=C\C/C=C\C/C=C\CCCCCCC(=O)O [Dihomo-.gamma.-Linolenic Acid],percent Bodipy-positive cells,[3],9.34 ± 0.44%
CCN(CC)CCOc1ccc(Nc2ncc3cc(-c4c(Cl)cccc4Cl)c(=O)n(C)c3n2)cc1,percent Bodipy-positive cells,[2],98.67 ± 0.16%
CCn1c(-c2nonc2N)nc2c(C#CC(C)(C)O)ncc(OC[C@H]3CCCNC3)c21,percent Bodipy-positive cells,[4],10.2 ± 3.6%
same,percent Bodipy-positive cells,[5],18.6% and 16.5%
same,percent Bodipy-positive cells,[6],12.5% and 21.5%
same,percent Bodipy-positive cells,[1],36.5 ± 4.6%
O=C1c2ccccc2C(=O)C1c1ccc(Br)cc1 [Bromindione],percent Bodipy-positive cells,library stock concentration: 6.6 mM,14.2 ± 4.5%
NC(=O)CC[C@H](N)C(=O)O,percent Bodipy-positive cells,[2],41.1 ± 0.86%
NC(=O)CC[C@H](N)C(=O)O [L-Glutamine],percent Bodipy-positive cells,[2],45.7 ± 5.2%
CC(C)=CCC/C(C)=C/CC/C(C)=C/CC[C@]1(C)CCc2cc(O)c(C)c(C)c2O1 [.gamma.-Tocotrienol],percent Bodipy-positive cells,[3],10.2 ± 1.5%
O=C1C(Cl)=C(NCCN2CCOCC2)C(=O)c2ncccc21,percent Bodipy-positive cells,[2],68.6 ± 0.77%
COc1cc(C[C@H]2COC(=O)[C@@H]2Cc2ccc(O)c(OC)c2)ccc1O [Matairesinol],percent Bodipy-positive cells,[3],12.9 ± 6.8%
CCCCC/C=C\C/C=C\C/C=C\C/C=C\CCCC(=O)O[C@@H](CO)COCCCCCCCCCCCCCCCC [1-Hexadecyl-2-arachidonoyl-glycerol],percent Bodipy-positive cells,[3],4.84 ± 2.8%
NC(=O)Nc1cc(-c2cccc(F)c2)sc1C(=O)N[C@H]1CCCNC1,percent Bodipy-positive cells,[1],91.5 ± 2%
O=c1oc2cc(O)ccc2s1 [Tioxolone],percent Bodipy-positive cells,[1],12.3 ± 5%
COc1cc2ncnc(Nc3cccc(Cl)c3)c2cc1OC [AG-1478 (Tyrphostin AG-1478)],percent Bodipy-positive cells,[1],8.89 ± 1.1%
COc1cc2ncnc(Nc3cccc(Cl)c3)c2cc1OC,percent Bodipy-positive cells,[4],6.737 ± 0.044%
same,percent Bodipy-positive cells,[5],7.04 ± 1.9%
same,percent Bodipy-positive cells,[6],8.32 ± 2.3%
same,percent Bodipy-positive cells,[1],10.5 ± 2.9%
same,percent Bodipy-positive cells,[2],66.7 ± 10%
same,percent Bodipy-positive cells,library stock concentration: 14.2 mM,52.8 ± 3.2%
CCCCc1ccc2[nH]c(NC(=O)OC)nc2c1 [Parbendazole],percent Bodipy-positive cells,,20.7 ± 3.4%
"CCCCCC=CCC=CCCCCCCCCCC(=O)O [11(Z),14(Z)-Eicosadienoic Acid]",percent Bodipy-positive cells,[3],9 ± 2.5%

# Pulled one by one from above (2):
smiles,measurement,setting,value
COc1cc2ncnc(Nc3cccc(Cl)c3)c2cc1OC,percent Bodipy-positive cells,library stock concentration: 14.2 mM,52.8 ± 3.2%
same,percent Bodipy-positive cells,[5],7.04 ± 1.9%
